Measured values published in patent US20230069722A1 (priority 2020, published 2023).

Experiment: general procedure: solution-phase peptide synthesis; pentafluorophenol (PFP) / DIC, DIPEA
[1] = late stage modification step, from P10
[2] = coupling step, from 3Fa, TFA salt

For “(1R,3R)-1-(4-{[(2S)-4-[(4-aminobenzenesulfonyl)carbamoyl]-1-(4-fluorophenyl)-4,4-dimethylbutan-2-yl]carbamoyl}-1,3-thiazol-2-yl)-3-[(2S,3S)—N-hexyl-3-methyl-2-{[(2R)-1-methylpiperidin-2-yl]formamido}pentanamido]-4-methylpentyl Acetate”, the “purity (crude or final not stated)” value (late stage modification step) was 99% and the step yield [1] was 72% yield.

In the case of “(1R,3R)-1-(4-{[(2S)-4-{[4-(aminomethyl)benzenesulfonyl]carbamoyl}-1-(4-fluorophenyl)-4,4-dimethylbutan-2-yl]carbamoyl}-1,3-thiazol-2-yl)-3-[(2S,3S)—N-hexyl-3-methyl-2-{[(2R)-1-methylpiperidin-2-yl]formamido}pentanamido]-4-methylpentyl Acetate”, the “purity (crude or final not stated)” value (late stage modification step) is reported as 98% and the step yield [1] is reported as 67% yield.

With “(1R,3R)-1-[4-({4-[(2S)-2-[(2S)-2-Amino-3-methylbutanamido]-5-(carbamoylamino)pentanamido]benzenesulfonyl}carbamoyl)-1,3-thiazol-2-yl]-3-[(2S,3S)—N-hexyl-3-methyl-2-{[(2R)-1-methylpiperidin-2-yl]formamido}pentanamido]-4-methylpentyl Acetate” the conjugation yield (conjugation step, from P43) was 27% yield from P43%.

For “(2S,3S)—N-[(1R,3R)-1-(4-{[(2S)-4-{[(4-aminophenyl)methanesulfonyl]carbamoyl}-4,4-dimethyl-1-phenylbutan-2-yl]carbamoyl}-1,3-thiazol-2-yl)-1-ethoxy-4-methylpentan-3-yl]-N-hexyl-3-methyl-2-{[(2R)-1-methylpiperidin-2-yl]formamido}pentanamide”, the “purity (crude or final not stated)” value (late stage modification step) was 99% and the step yield (late stage modification step, from P50) was 6.5% yield.

With “(4S)-4-({2-[(1R,3R)-1-(acetyloxy)-3-[(2S,3S)-2-{[(2R)-1,2-dimethylpyrrolidin-2-yl]formamido}-N-hexyl-3-methylpentanamido]-4-methylpentyl]-1,3-thiazol-4-yl}formamido)-5-(4-aminophenyl)-2,2-dimethylpentanoic Acid” the “final HPLC purity” value was over 99% and the step yield (coupling step) was 6.7%.

With “(4S)-4-({2-[(1R,3R)-1-(acetyloxy)-3-[(2S,3S)-2-{[(2R,4R)-1,4-dimethylpiperidin-2-yl]formamido}-N-hexyl-3-methylpentanamido]-4-methylpentyl]-1,3-thiazol-4-yl}formamido)-5-(4-amino-3-fluorophenyl)-2,2-dimethylpentanoic Acid” the “final HPLC purity” value (coupling step) was 96% and the step yield (coupling step) was 13%.

With “(4S)-4-({2-[(1R,3R)-1-(acetyloxy)-3-[(2S,3S)—N-hexyl-3-methyl-2-[(2R)-piperidin-2-ylformamido]pentanamido]-4-methylpentyl]-1,3-thiazol-4-yl}formamido)-5-(4-amino-3-fluorophenyl)-2,2-dimethylpentanoic Acid” the “final HPLC purity” value (coupling step) was over 99% and the step yield (coupling step, from 3Fb) was 7.5%.

For “(4S)-4-({2-[(1R,3R)-1-(acetyloxy)-3-[(2S,3S)—N-hexyl-3-methyl-2-[(2R)-piperidin-2-ylformamido]pentanamido]-4-methylpentyl]-1,3-thiazol-4-yl}formamido)-5-(4-aminophenyl)-2,2-dimethylpentanoic Acid”, the “final HPLC purity” value was 99% and the step yield (coupling step, from 3Fb) was 18%.

For “(4S)-4-({2-[(1R,3R)-1-(acetyloxy)-3-[(2S,3S)—N-hexyl-3-methyl-2-[(2R)-piperidin-2-ylformamido]pentanamido]-4-methylpentyl]-1,3-thiazol-4-yl}formamido)-5-[4-(2-aminoacetamido)-3-fluorophenyl]-2,2-dimethylpentanoic Acid”, the “final HPLC purity” value (coupling step) was 98% and the step yield (coupling step, from 3Fb, TFA salt) was 20%.

For “(4S)-4-({2-[(1R,3R)-1-(acetyloxy)-3-[(2S,3S)—N-hexyl-3-methyl-2-{[(2R)-1-methylpiperidin-2-yl]formamido}pentanamido]-4-methylpentyl]-1,3-thiazol-4-yl}formamido)-5-(4-aminophenyl)-2,2-dimethylpentanoic Acid”, the “final HPLC purity” value (coupling step) was 99% and the step yield (coupling step, from 3Fa) was 50%.

For “(4S)-4-({2-[(1R,3R)-1-(acetyloxy)-3-[(2S,3S)—N-hexyl-3-methyl-2-{[(2R)-1-methylpiperidin-2-yl]formamido}pentanamido]-4-methylpentyl]-1,3-thiazol-4-yl}formamido)-5-(4-fluorophenyl)-2,2-dimethylpentanoic Acid”, the “final HPLC purity” value (coupling step) was over 99% and the step yield (coupling step, from 3Fa) was 26%.

For “(4S)-4-({2-[(1R,3R)-1-(acetyloxy)-3-[(2S,3S)—N-hexyl-3-methyl-2-{[(2R)-1-methylpiperidin-2-yl]formamido}pentanamido]-4-methylpentyl]-1,3-thiazol-4-yl}formamido)-5-[4-(2-aminoacetamido)-3-fluorophenyl]-2,2-dimethylpentanoic Acid”, the “final HPLC purity” value (coupling step) was 98% and the step yield [2] was 39%.

In the case of “(4S)-4-({2-[(1R,3R)-1-(acetyloxy)-3-[(2S,3S)—N-hexyl-3-methyl-2-{[(2R)-1-methylpiperidin-2-yl]formamido}pentanamido]-4-methylpentyl]-1,3-thiazol-4-yl}formamido)-5-[4-(2-aminoacetamido)phenyl]-2,2-dimethylpentanoic Acid”, the “final HPLC purity” value (coupling step) is reported as 95% and the step yield (coupling step, from 3Fa) is reported as 11%.

With “(4S)-4-({2-[(1R,3R)-1-(acetyloxy)-3-[(2S,3S)—N-hexyl-3-methyl-2-{[(2R)-1-methylpiperidin-2-yl]formamido}pentanamido]-4-methylpentyl]-1,3-thiazol-4-yl}formamido)-5-[4-(2-hydroxyacetamido)phenyl]-2,2-dimethylpentanoic Acid” the “purity (crude or final not stated)” value (coupling step) was 98% and the step yield (coupling step) was 25%.

For “(4S)-4-({2-[(1R,3R)-1-(acetyloxy)-3-[(2S,3S)—N-hexyl-3-methyl-2-{[(2R)-1-methylpiperidin-2-yl]formamido}pentanamido]-4-methylpentyl]-1,3-thiazol-4-yl}formamido)-5-{4-[(2-aminoethyl)amino]phenyl}-2,2-dimethylpentanoic Acid”, the “final HPLC purity” value (coupling step) was 96% and the step yield [2] was 49%.

With “(4S)-4-({2-[(1R,3R)-1-(acetyloxy)-3-[(2S,3S)—N-hexyl-3-methyl-2-{[(2R)-2-methylpyrrolidin-2-yl]formamido}pentanamido]-4-methylpentyl]-1,3-thiazol-4-yl}formamido)-5-(4-amino-3-fluorophenyl)-2,2-dimethylpentanoic Acid” the “final HPLC purity” value was over 99% and the step yield (coupling step, from 3Ff) was 7.6%.

With “(4S)-4-({2-[(1R,3R)-1-(acetyloxy)-3-[(2S,3S)—N-hexyl-3-methyl-2-{[(2R)-2-methylpyrrolidin-2-yl]formamido}pentanamido]-4-methylpentyl]-1,3-thiazol-4-yl}formamido)-5-(4-hydroxyphenyl)-2,2-dimethylpentanoic Acid” the “final HPLC purity” value was over 99% and the step yield (late stage modification step) was 50%.

For “(4S)-4-({2-[(1R,3R)-1-(acetyloxy)-3-[(2S,3S)—N-hexyl-3-methyl-2-{[(2R,4R)-4-methylpiperidin-2-yl]formamido}pentanamido]-4-methylpentyl]-1,3-thiazol-4-yl}formamido)-5-(4-amino-3-fluorophenyl)-2,2-dimethylpentanoic Acid”, the “final HPLC purity” value (coupling step) was 99% and the step yield (coupling step, from 3Fd) was 32%.

For “(4S)-4-({2-[(1R,3R)-1-(acetyloxy)-4-methyl-3-[(2S,3S)-3-methyl-2-{[(2R)-1-methylpiperidin-2-yl]formamido}-N-(pent-4-yn-1-yloxy)pentanamido]pentyl]-1,3-thiazol-4-yl}formamido)-5-(4-aminophenyl)-2,2-dimethylpentanoic Acid”, the “purity (crude or final not stated)” value (coupling step) was 95% and the step yield (coupling step) was 27%.

With “(4S)-4-({2-[(1R,3R)-1-(acetyloxy)-4-methyl-3-[(2S,3S)-3-methyl-2-{[(2R)-1-methylpiperidin-2-yl]formamido}-N-(pent-4-yn-1-yloxy)pentanamido]pentyl]-1,3-thiazol-4-yl}formamido)-5-(4-hydroxyphenyl)-2,2-dimethylpentanoic Acid” the “purity (crude or final not stated)” value (coupling step) was 95% and the step yield (coupling step, from 3Ia) was 12%.

For “(4S)-4-({2-[(1R,3R)-1-(acetyloxy)-4-methyl-3-[(2S,3S)-3-methyl-2-{[(2R)-1-methylpiperidin-2-yl]formamido}-N-(pent-4-yn-1-yloxy)pentanamido]pentyl]-1,3-thiazol-4-yl}formamido)-5-[4-(2-aminoacetamido)phenyl]-2,2-dimethylpentanoic Acid”, the step yield (coupling step, in 3 steps from 3Ia, TFA salt) was 11% yield.

In the case of “(4S)-4-({2-[(1R,3R)-1-(acetyloxy)-4-methyl-3-[(2S,3S)-3-methyl-2-{[(2R)-1-methylpiperidin-2-yl]formamido}-N-(pent-4-yn-1-yloxy)pentanamido]pentyl]-1,3-thiazol-4-yl}formamido)-5-[4-(2-hydroxyacetamido)phenyl]-2,2-dimethylpentanoic Acid”, the “purity (crude or final not stated)” value is reported as 99% and the step yield (coupling step) is reported as 48% yield.

For “(4S)-4-({2-[(1R,3R)-1-(acetyloxy)-4-methyl-3-[(2S,3S)-3-methyl-2-{[(2R)-2-methylpyrrolidin-2-yl]formamido}-N-(pent-4-yn-1-yloxy)pentanamido]pentyl]-1,3-thiazol-4-yl}formamido)-5-(4-amino-3-fluorophenyl)-2,2-dimethylpentanoic Acid”, the “final HPLC purity” value (coupling step) was 99% and the step yield (coupling step, from 3Ib) was 42%.

With “(4S)-4-({2-[(1R,3R)-1-(acetyloxy)-4-methyl-3-[(2S,3S)-3-methyl-N-(pentyloxy)-2-[(2R)-piperidin-2-ylformamido]pentanamido]pentyl]-1,3-thiazol-4-yl}formamido)-5-(4-aminophenyl)-2,2-dimethylpentanoic Acid” the “final HPLC purity” value (coupling step) was 99% and the step yield (coupling step, from 3Ic) was 13%.

“(4S)-4-({2-[(1R,3R)-1-ethoxy-3-[(2S,3S)—N-hexyl-3-methyl-2-{[(2R)-1-methylpiperidin-2-yl]formamido}pentanamido]-4-methylpentyl]-1,3-thiazol-4-yl}formamido)-2,2-dimethyl-5-phenylpentanoic Acid” gave a step yield (coupling step, from 3Ba) of 60%.

Like-named read-outs stand apart in the source and are kept apart here.
